According to paper doi:10.1101/2020.05.02.074187 (bioRxiv, 2020):
No constants are given. Whether binding was seen depends on the method and setting. Some entries that bind do so weakly or less than the wild type.

Target: E-cadherin endogenously expressed on the apical surface of MDCK cells (canine (endogenous in MDCK)) (UniProt F1PAA9)
Experiment: single-molecule AFM force spectroscopy

- binding: binds
B1: recombinant E-cadherin extracellular region, biotinylated monomer with C-terminal Avi tag (domain or fragment, UniProt F1PAA9 157-712, looked up)
chain: DWVIPPISCPENEKGPFPKNLVQIKSNRDKEIKVFYSITGQGADAPPVGVFIIERETGWLKVTEPLDREQIAKYILYSHAVSSNGNAVEDPMEIVITVTDQNDNKPEFTQAVFQGSVTEGALPGTSVMQVTATDADDDVNTYNAAIAYSILTQDPLLPSSMMFTINKDTGVISVLTTGLDREGVPMYTLVVQAADLQGEGLTTTATAVITVTDINDNPPIFNPTTYQGRVPENKANVEIAVLKVTDADVPDTPAWRAVYTILNNNNDQFVVTTDPVTNDGILKTTKGLDFEDKQQYVLYVTVVNVTPFEVILSTSTATVTVDVEDVNEAPIFIPCPKVVSIPEDFGVGQEITSYTAEDPDTYMEQRITYRIWRDAAGWLEVNPESGAIFTRAELDREDFEHVKNSTYEALIIAIDNGSPVATGTGTLLLVLSDVNDNGPIPEPRNMDFCQKNPQPHVINIIDPDLPPNTSPFTAELTHGASVNWTIEYNDPARESLILKPKKTLELGDYKINLKLTDNQNKDQVTTLDVFVCDCEGVVNSCKRTAPYAEAGLQVPA
modifications: biotin (biotinylated with BirA enzyme)
